From PubChem BioAssay AID2551 (National Center for Advancing Translational Sciences (NCATS), 2010)
Screen size: about 310,000 compounds; about 17,000 (5.5%) were called active. Inconclusive means that the source gave no clear call. Such entries were picked first, then a sample of the others. The call rests on the fitted dose curve; in most records, active means well fitted inhibition curve with a large enough effect; inconclusive means small, poorly fitted or top-dose-only effect, or effect the other way; inactive means no such curve, though single readings can be large or run the other way. A potency beside an inconclusive call is a rough fit, not a confirmed value.

Amino acid sequences for entries named in this document (tags omitted). A change or cut given only in a name is not applied to a line headed by its entry.
UniProt P51450: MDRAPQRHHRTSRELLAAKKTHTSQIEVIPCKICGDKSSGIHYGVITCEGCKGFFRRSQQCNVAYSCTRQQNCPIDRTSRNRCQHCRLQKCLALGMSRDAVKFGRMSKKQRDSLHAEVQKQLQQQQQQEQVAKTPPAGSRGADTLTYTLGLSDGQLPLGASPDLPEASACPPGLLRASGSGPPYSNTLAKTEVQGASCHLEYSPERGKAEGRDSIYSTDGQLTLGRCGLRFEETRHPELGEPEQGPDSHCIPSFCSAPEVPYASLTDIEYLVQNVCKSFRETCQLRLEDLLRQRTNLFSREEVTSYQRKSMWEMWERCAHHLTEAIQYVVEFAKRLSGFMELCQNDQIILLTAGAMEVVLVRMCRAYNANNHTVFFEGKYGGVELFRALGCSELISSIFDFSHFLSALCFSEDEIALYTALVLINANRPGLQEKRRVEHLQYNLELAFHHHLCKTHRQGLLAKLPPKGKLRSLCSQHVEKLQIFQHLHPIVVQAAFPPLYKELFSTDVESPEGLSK

Molecular target: Nuclear receptor ROR-gamma (Mus musculus) (UniProt P51450)
Experiment: qHTS for inhibitors of ROR gamma transcriptional activity; further: nearly all actives have a fitted effect of over 60% in size
Settings: Drosophila S2 Gal4-RORgamma UAS-luciferase reporter, 20 h; activity change, negative = inhibition: at 53.6 µM (top of the series)
Method in brief: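 Luminescence from a UAS-regulated Photinus luciferase reporter in stably transfected Drosophila Schneider cells is measured; decreased signal marks ROR gamma inhibition. Fusion expression is induced by 700 uM copper sulfate for 20 hr.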
On the % scale 0 is the no-effect control and ±100 the full control effect; potency means the concentration at half of the fitted maximal effect.

Potency, inconclusive:
Clc1ccc(OCc2nnc(SCCN3CCCCC3)n2Cc2ccco2)cc1 0.224 µM [inhibitor, full curve, poor fit]
CCCN(CCC)S(=O)(=O)c1ccc(NC(=O)C2CCCO2)cc1 (stereo not given) 0.708 µM [activator, full curve]
Cc1ccc(NP(=O)(c2ccc(N(C)C)cc2NC(=O)c2cccs2)N2CCOCC2)cc1Cl (stereo not given) 7.94 µM [activator, partial curve]
C=C(C)COc1ccc2c(C)c(C)c(=O)oc2c1OCC(=C)C 11.2 µM [activator, single point]
O=C(Nc1nnc2n1CCS2)c1ccco1 12.6 µM [inhibitor, single point]
Cc1ccc(Cl)c2c1NC(=O)C2(O)CC(=O)c1ccc(Br)cc1 (stereo not given) 35.5 µM [inhibitor, single point]
CCc1ccc(NC(=O)c2ccccc2NC(=O)C2CCCO2)cc1 (stereo not given) 2.51 µM [activator, full curve]
COc1ccc(C2C(C(C)=O)=C(O)C(=O)N2c2ccc(Br)cc2)cc1 (stereo not given) 1 µM [inhibitor, full curve, poor fit]
COc1cccc(C(=O)N/N=C/C(Br)=C/c2ccccc2)c1 35.5 µM [inhibitor, single point]
O=c1c(Cl)c(Cl)cnn1Cc1nnc(-c2ccc(Cl)cc2)o1 35.5 µM [inhibitor, single point]
Cc1ccccc1OCC(=O)Nc1ccc(N2CCN(C(=O)C(C)C)CC2)c(Cl)c1 22.4 µM [activator, single point]
CCNC(=S)SCCOc1ccc(C)cc1 31.6 µM [inhibitor, single point]
CCC(=O)c1ccc(OCC(=O)OCC(=O)Nc2sccc2C(N)=O)cc1 10 µM [activator, partial curve, poor fit]
CCOc1ccc(-c2ccc(SCc3ccccn3)nn2)cc1 2.82 µM [activator, full curve]
COc1ccc(Oc2ncc3nc(CCc4ccccc4)c(=O)n(C[C@H]4CCCO4)c3n2)cc1 12.6 µM [inhibitor, single point]
CCC(=O)N(C1=C(NC)C(=O)c2ccccc2C1=O)C(C)C 17.8 µM [inhibitor, partial curve, poor fit]
COc1ccc(CCNc2ccncn2)cc1 3.16 µM [activator, single point]
COC(=O)Cc1ccc(NC(=S)NCc2ccc(F)cc2)cc1 11.2 µM [inhibitor, partial curve, poor fit]
CCOC(=O)CCCc1ccc(/C(C)=N/NC(N)=S)cc1 35.5 µM [inhibitor, single point]
CCc1ccc(Nc2cnn(-c3nc4ccccc4s3)c(=O)c2Cl)cc1 8.91 µM [inhibitor, partial curve]
Cc1ccc(S(=O)(=O)C/N=C(/NC(=S)N(c2ccccc2)c2ccccc2)c2ccccc2)cc1 35.5 µM [inhibitor, single point]

Retrieved by compound from the list above, 3 records:
Potency, inconclusive:
COc1ccc(Oc2ncc3nc(CCc4ccccc4)c(=O)n(C[C@H]4CCCO4)c3n2)cc1 12.6 µM [inhibitor, single point]
CCOC(=O)CCCc1ccc(/C(C)=N/NC(N)=S)cc1 35.5 µM [inhibitor, single point]
COc1ccc(C2C(C(C)=O)=C(O)C(=O)N2c2ccc(Br)cc2)cc1 (stereo not given) 1 µM [inhibitor, full curve, poor fit]

Following part.

Potency, active:
CN1CCN(C(=S)NC(=O)/C=C/c2cccc3ccccc23)CC1 1 µM
COc1ccc(OC)c2c1C(=O)C(Cl)=C(Cl)C2=O 5.01 µM
CCSC1(SCC)N=C(N)C2(C#N)C(c3ccc(OC)c(OC)c3OC)C12C#N (stereo not given) 11.2 µM
S=C(NCc1ccc(Cl)cc1)NC1CCCCC1 3.55 µM
O=C(O)c1cccc(S(=O)(=O)Nc2ccc(O)cc2Sc2nc3ccccc3s2)c1 10 µM
COc1ccc(CNC(=S)Nc2cccc(OC)c2)cc1 17.8 µM
CCOc1cc(/C=N/N=C(\N)c2nonc2N)cc(Br)c1OCc1cccc2ccccc12 12.6 µM
CCn1cc(C2=NCC(C)O2)c2ccccc21 (stereo not given) 17.8 µM

Activity change, negative = inhibition, inactive:
O=Cc1cc(-c2ccccc2)[nH]c1-c1ccccc1 1.68% [at 1.91 µM]
COc1cc(C2NC(=O)NC(c3ccccc3)=C2C(C)=O)ccc1OCC#N (stereo not given) 20.8%
O=C(C1=C[C@H](c2ccccc2)C[C@H](OCc2ccc(CO)cc2)O1)N1CCCCCCC1 -5.14%
CCOC(=O)c1c(NC(=O)Cn2nc(C(F)(F)F)cc2C)sc(C)c1C 38.1%
COc1cc(OC)c(OC)cc1/C=N/N(C)c1ccccc1 15.5%
COc1ccc(NS(=O)(=O)c2ccc(NC(=S)NC(=O)c3cccnc3)cc2)nn1 10.8%
COc1ccc(-c2cc(C(=O)N3CCN(c4ccccc4OC)CC3)no2)cc1OC 33.1%
O=C(NCc1ccco1)C1CC(O)CN1C(=O)Nc1ccccc1 (stereo not given) -0.171%
COc1cccc(CNC(=O)N2CCN(c3ccccc3)CC2)c1 -22.5%
C[C@H](O)CO[C@H]1[C@H]2O[C@H]3[C@H](O)[C@@H](O)[C@@H](O[C@H]4[C@H](O)[C@@H](O)[C@@H](O[C@H]5[C@H](O)[C@@H](O)[C@@H](O[C@H]6[C@H](O)[C@@H](OC[C@H](C)O)[C@@H](O[C@H]7[C@H](O)[C@@H](OC[C@H](C)O)[C@@H](O[C@H]8[C@H](O)[C@@H](O)[C@@H](O[C@@H]([C@@H]1O)[C@@H](CO)O2)O[C@@H]8CO)O[C@@H]7CO)O[C@@H]6CO)O[C@@H]5CO)O[C@@H]4CO)O[C@@H]3CO -0.452%
COC(=O)c1ccc(N2CCOCC2)c(NC(=O)c2ccco2)c1 -20.1%
O=C(COc1ccccc1)N1CCN(S(=O)(=O)c2cccc([N+](=O)[O-])c2)CC1 27.2%
CCCCOC1CC(c2ccc(OCc3ccc(OC)cc3)c(OC)c2)N(C)O1 (stereo not given) 20.2%
COc1ccc(C2CC(c3ccc4ccccc4c3)=NN2C(=O)CN2CCC(C(N)=O)CC2)cc1 (stereo not given) -2.07%
O=C(COC(=O)C1CC(=O)N(Cc2ccccc2)C1)Nc1ccccc1F (stereo not given) 10.6%
Cc1cc(C(=O)COC(=O)C2=COCCO2)c(C)n1-c1ccc2c(c1)OCO2 35.5%
